Source: PubChem BioAssay AID485314 (National Center for Advancing Translational Sciences (NCATS), 2010)
In all, about 340,000 compounds went through this assay and about 4,500 (1.3%) were called active. The inconclusive results got no clear call from the source; some entries with a clear call stand among them for comparison. Calls come from the whole dose curve; as a rule, active = well fitted inhibition curve with a large enough effect; inconclusive = small, poorly fitted or top-dose-only effect, or another doubt; inactive = no such curve, though single readings can be large or run the other way. Potencies of inconclusive entries are doubtful fits and often do not repeat.

molecular target: DNA polymerase beta (Homo sapiens) (UniProt P06746); experiment: qHTS Assay for Inhibitors of DNA Polymerase Beta; details: Pol beta primer extension/strand displacement, fluorescence kinetic; activity change, negative = inhibition: at 114 µM (top of the series)
Outline: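 Homogeneous kinetic assay of primer extension and strand displacement by 10 nM Pol beta, preincubated 15 min at room temperature with compound before 50 nM substrate (final) was added. Read at 0 and 10 min; four-parameter Hill fit.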
% is set by controls: 0 for no effect and ±100 for the full control effect; potency is the fitted concentration of half-maximal effect.

Potency, active:
CCN(CC)c1ccc(NC(=O)C2CCN(c3nnc(-n4cccc4)s3)CC2)c(C)c1 25.1 µM
O=C(CSc1nccn1Cc1ccccc1)NCc1ccco1 28.2 µM
COc1ccc(C(CC(=O)N2CCN(c3ccccc3)CC2)c2c(OC)cc(OC)c3c(-c4ccccc4)cc(=O)oc23)cc1 (stereo not drawn) 8.91 µM
C=CCn1c(C)cc(C(=O)Cn2ncc(Cl)c(Cl)c2=O)c1C 11.2 µM
Cc1ccc2nc(-c3ccc(NC(=O)CSc4nccc(=O)[nH]4)cc3)sc2c1 35.5 µM
CCCCC1=CC2=C(c3ccco3)C(=O)C(C)(OC(=O)c3ccc(OC)cc3)C(=O)C2=CN1Cc1ccccc1 (stereo not drawn) 44.7 µM
CCCOc1ccc(/C=N/NC(=O)c2ccc(Cn3cc([N+](=O)[O-])cn3)o2)cc1 31.6 µM

By substructure: the entries above containing an aryl thioether with sulfur outside any ring.
Potency, active:
O=C(CSc1nccn1Cc1ccccc1)NCc1ccco1 28.2 µM
Cc1ccc2nc(-c3ccc(NC(=O)CSc4nccc(=O)[nH]4)cc3)sc2c1 35.5 µM

Following part.

Potency, inconclusive:
COc1ccc(Nc2nnc(SCc3cc(=O)n4ccsc4n3)s2)cc1 15.8 µM [inhibitor, full curve]
Cn1ncc([N+](=O)[O-])c1C(=O)Nc1ccccc1Cl 0.1 µM [inhibitor, full curve, poor fit]
O=C(NCc1cccs1)c1ccc2c(=O)n3nc(Nc4ccccc4)sc3nc2c1 6.31 µM [inhibitor, full curve]
CCOC(=O)CCP(=O)(O)C(C)(O)c1ccccc1 (stereo not drawn) 4.47 µM [inhibitor, single point]
COc1ccc(C2c3c(-c4ccccc4O)n[nH]c3C(=O)N2CCc2ccc(OC)c(OC)c2)cc1 (stereo not drawn) 4.47 µM [inhibitor, single point]
Cc1cc(C)cc(NC(=O)C(Sc2ncnc3ccccc23)c2ccccc2)c1 (stereo not drawn) 79.4 µM [inhibitor, single point]
Cc1cc(C)cc(OCC(=O)Nc2ccc(S(=O)(=O)Nc3ccccn3)cc2)c1 89.1 µM [inhibitor, single point]
Cc1ccc(C(=O)Nc2ccc3c(c2)n(C)c(=O)c(=O)n3C)cc1 100 µM [inhibitor, single point]
NC(=O)c1ccc(Oc2ccc3ccc(=O)oc3c2)c([N+](=O)[O-])c1 11.2 µM [inhibitor, full curve]
CC(C)CNC(=O)C(=O)NN=C1CCCCCC1 89.1 µM [inhibitor, single point]
COc1ccc(NS(=O)(=O)c2ccc3oc(=S)[nH]c3c2)cc1 89.1 µM [inhibitor, single point]
Cc1c2cnn(CC(=O)NCc3ccc(F)cc3)c(=O)c2c(C)n1Cc1cccc(Cl)c1 39.8 µM [inhibitor, single point]
CCOCCCN(Cc1ccco1)S(=O)(=O)c1cc2c(cc1Cl)NC(=O)CO2 39.8 µM [inhibitor, single point]
O=C(COC(=O)/C(=C/c1cccs1)c1cccs1)NC(c1ccccc1)c1ccccc1 17.8 µM [inhibitor, full curve]
COc1ccc(CCN2C(=O)CC(N3CCN(S(=O)(=O)c4ccccc4)CC3)C2=O)cc1 (stereo not drawn) 50.1 µM [inhibitor, partial curve]
Oc1cccc(CCC2CCCCN2Cc2cn[nH]c2-c2ccc3c(c2)OCO3)c1 (stereo not drawn) 100 µM [inhibitor, single point]
COC(=O)c1ccc(C(=O)OC)c(NC(=S)N2CCN(C(=O)C3CCCO3)CC2)c1 (stereo not drawn) 25.1 µM [inhibitor, single point]
CC1CCCCN1C(=O)c1cc(F)c(F)cc1Cl (stereo not drawn) 1.26 µM [inhibitor, full curve, poor fit]
Cc1ccc(Cn2c(C(=O)O)c(CNCc3ccc(OC(C)C)cc3)c3ccc(C)cc32)cc1 89.1 µM [inhibitor, single point]
Cc1c(C(=O)NNC(=O)Nc2ccc([N+](=O)[O-])cc2)oc2ccccc12 28.2 µM [inhibitor, full curve]
CCOc1ccc(/C=C2\SC(=S)N(CCC(=O)Nc3ccccc3C(=O)O)C2=O)cc1 0.158 µM [inhibitor, full curve]
O=[N+]([O-])c1cc2c(cc1/C=N/n1c(-c3ccccc3)n[nH]c1=S)OCO2 79.4 µM [inhibitor, single point]
COc1cccc(OCc2nc3ccccc3n2CCOc2ccc(C)cc2)c1 100 µM [inhibitor, single point]
O=C(NCc1ccccc1Cl)c1ccc2c(c1)NC(=O)C(CS(=O)(=O)Cc1ccc(F)cc1Cl)N2 (stereo not drawn) 39.8 µM [inhibitor, partial curve]
CCOC(=O)c1ccc(N2C(=O)c3n[nH]c(-c4cccs4)c3C2c2ccc(OCC)cc2)cc1 (stereo not drawn) 12.6 µM [inhibitor, full curve, poor fit]
COc1cccc(CNC(=O)c2ccc(CS(=O)(=O)Cc3ccccc3C)o2)c1 100 µM [inhibitor, partial curve]

Activity change, negative = inhibition, inactive:
CC1=C(c2ccc(Cl)cc2)S(=O)(=O)NC1=NCCCN1CCN(c2cc(C)ccc2C)CC1 -0.034%
COc1cccc(/C=N/n2c(C3CCCCC3)n[nH]c2=S)c1 18.5%
CCOc1ccc(NCc2cccn2-c2nnc(N3CCC(C(=O)NCC(C)c4ccccc4)CC3)s2)cc1 (stereo not drawn) 0.202%
Cn1c(/N=C/c2cccs2)nc2ccccc21 25%
COc1ccc(CNS(=O)(=O)c2ccc(N3CCCCS3(=O)=O)cc2)cc1 -2.21%
CC1CCN(Cc2c(O)ccc3c(=O)c(Oc4ccccc4Cl)c(C(F)(F)F)oc23)CC1 5.1%
CCOC(=O)C1=C(C)NC(C)=C(C(=O)OCC)C1c1ccc(C)o1 13.9%
Cn1c(=O)oc2cc(S(=O)(=O)NC(Cc3ccccc3)C(=O)Nc3ccc(F)cc3)ccc21 (stereo not drawn) 5.03%
COc1ccc(OC)c(NS(=O)(=O)c2cc3c(cc2Cl)N(C(C)=O)CCO3)c1 8.79%
CCOc1ccc(NC(=O)CC2C(=O)N(c3ccc(F)cc3)C(=O)N2Cc2ccc(OC)c(OC)c2)cc1 (stereo not drawn) 35.3%

2 records drawn at random from those above, as already listed:
Activity change, negative = inhibition, inactive:
COc1ccc(CNS(=O)(=O)c2ccc(N3CCCCS3(=O)=O)cc2)cc1 -2.21%
COc1cccc(/C=N/n2c(C3CCCCC3)n[nH]c2=S)c1 18.5%
